Test system: nociceptive response to electric irritation in rats

With `CN1CC[C@]23c4c5ccc(O)c4O[C@H]2[C@@H](O)C=C[C@H]3[C@H]1C5` [Morphine, morphine] the “Threshold of nociceptive response, After injection” value (30 minutes after single intraperitoneal injection) was 38.2 ± 2.8 volt and the “Threshold of nociceptive response, Prior to injection” value (baseline of the group) was 29.7 ± 2.6 volt.
